No constants are given. Whether binding was seen depends on the method and setting. Some entries that bind do so weakly or less than the wild type.

The chains behind the UniProt entries cited, without tags or fusion partners. Residues count along the entry.
UniProt Q9Y466, residues 187-385: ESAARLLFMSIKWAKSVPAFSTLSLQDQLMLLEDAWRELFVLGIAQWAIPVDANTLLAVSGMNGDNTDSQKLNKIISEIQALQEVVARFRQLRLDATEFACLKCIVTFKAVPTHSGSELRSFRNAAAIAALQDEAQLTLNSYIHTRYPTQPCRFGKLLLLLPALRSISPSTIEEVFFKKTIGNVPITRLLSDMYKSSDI

The target of this assay is human TLX ligand binding domain (TLX LBD, a.a. 187-385) (human) (UniProt Q9Y466). Kind of assay: AUC; analytical ultracentrifugation in the presence of the three hit compounds (ccrp1, ccrp2, ccrp3) at 100 µM; data not shown; dimer to monomers; both purified.

For the substance “human TLX ligand binding domain (TLX LBD, a.a. 187-385) (from UniProt Q9Y466 187-385) (domain or fragment)”, the binding result is “binds”.

The record behind these values is publication PMC4060991, “The Human Orphan Nuclear Receptor Tailless (TLX, NR2E1) Is Druggable” (PLoS ONE, 2014).
